Source: patent publication US20230310629A1, “BISPECIFIC ANTIBODY-DRUG CONJUGATES TARGETING EGFR AND MUC1 AND USES THEREOF” (Merck Patent GmbH, priority 2020, published 2023)
Results are given in words; binding and its absence hold for the method and conditions named. Some entries that bind do so weakly or less than the wild type.

Biological target: human MUC1 peptide … (human)
Assay: PEPperMAP linear peptide microarray, antibody at 1 ug/ml

| Binder | binding |
| --- | --- |
| anti-MUC1 antibody HT186-D11 (antibody, V domains shown) VH: QMQLVQSEAELKKPGASVKVSCKASGYSFTGHYMHWVRQAPGQGLEWMGWIDPVTGGTKYAQNFQGWVTMTRDTSIRTAYLELSRLRSDDTAMYYCAREVTGDRGQFDKWGQGTLVTVAS VL: QSVLTQPPSVSVAPGKTARITCGGNNIGSKSVHWYQQKPGQAPALVIYYGSNRPSGIPERFSGSNSGNTATLTISRVEAGDEADYYCQVWDSSSDWVFGGGTKLTVL | binds |
| 1993-H02 with an HT186-D11 light chain (anti-MUC1 antibody H02) (antibody, V domains shown) VH: QMQLVQSEAELKKPGASVKVSCKASGYSFTSHFMHWVRQAPGQGLEWMGWIDPVTGGTKYAQNFQGWVTMTRDTSIRTAYLELSRLRSDDTAMYYCAREARADRGQFDKWGQGTLVTVAS VL: QSVLTQPPSVSVAPGKTARITCGGNNIGSKSVHWYQQKPGQAPALVIYYGSNRPSGIPERFSGSNSGNTATLTISRVEAGDEADYYCQVWDSSSDWVFGGGTKLTVL | binds |
